# Experimental data from the supplement of paper PMC8728848.
# This is one part of the list.
# Key:
# Assay in all cases: glycan array binding signal (z-score within array); higher = stronger binding
# Conditions in all cases: glycan notation: IUPAC condensed, linker removed
# [1] = biological target: GlcNAc(b1-3)Gal(b1-4)GlcNAc(b1-3)Gal(b1-4)GlcNAc(b1-3)Gal(b1-4)GlcNAc(b1-3)Gal(b1-4)GlcNAc(b1-2)[GlcNAc(b1-3)Gal(b1-4)GlcNAc(b1-3)Gal(b1-4)GlcNAc(b1-3)Gal(b1-4)GlcNAc(b1-3)Gal(b1-4)GlcNAc(b1-6)]Man(a1-6)[GlcNAc(b1-3)Gal(b1-4)GlcNAc(b1-3)Gal(b1-4)GlcNAc(b1-3)Gal(b1-4)GlcNAc(b1-3)Gal(b1-4)GlcNAc(b1-2)Man(a1-3)]Man(b1-4)GlcNAc(b1-4)[Fuc(a1-6)]GlcNAc
# Method in brief: (§1)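 From the Consortium for Functional Glycomics database, 3228 arrays were curated, keeping only those whose protein sequence was available. Binding is given as a within-array Z-score averaged across arrays sharing a protein sequence and across linkers. Negative Z-scores can be read as non-binding.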
# [2] = biological target: GlcNAc(b1-3)Gal(b1-4)GlcNAc(b1-3)Gal(b1-4)GlcNAc(b1-3)GalNAc
# Method in brief: as §1
# [3] = biological target: GlcNAc(b1-3)Gal(b1-4)GlcNAc(b1-3)GalNAc
# Method in brief: as §1
# [4] = biological target: GlcNAc(b1-3)Gal(b1-4)GlcNAc(b1-3)[GlcNAc(b1-3)Gal(b1-4)GlcNAc(b1-3)]GalNAc
# Method in brief: as §1
# [5] = biological target: GlcNAc(b1-3)Gal(b1-4)GlcNAc(b1-6)[Gal(b1-3)]GalNAc
# Method in brief: as §1
# [6] = biological target: GlcNAc(b1-3)Gal(b1-4)GlcNAc(b1-6)[GlcNAc(b1-3)Gal(b1-3)]GalNAc
# Method in brief: as §1
# [7] = biological target: GlcNAc(b1-3)Gal(b1-4)GlcNAc(b1-6)[GlcNAc(b1-3)]Gal(b1-4)GlcNAc
# Method in brief: as §1
# GlcNAc(b1-3)GalNAc = biological target: GlcNAc(b1-3)GalNAc
# Method in brief: as §1
# GlcNAc(b1-3)Man = biological target: GlcNAc(b1-3)Man
# Method in brief: as §1
# [8] = biological target: GlcNAc(b1-3)[GlcNAc(b1-4)][GlcNAc(b1-6)]GlcNAc
# Method in brief: as §1
# [9] = biological target: GlcNAc(b1-3)[GlcNAc(b1-6)]Gal(b1-4)GlcNAc
# Method in brief: as §1
# [10] = biological target: GlcNAc(b1-3)[GlcNAc(b1-6)]GalNAc
# Method in brief: as §1
# [11] = biological target: GlcNAc(b1-4)Gal(b1-4)GlcNAc
# Method in brief: as §1
# GlcNAc(b1-4)GlcNAc = biological target: GlcNAc(b1-4)GlcNAc
# Method in brief: as §1
# [12] = biological target: GlcNAc(b1-4)GlcNAc(b1-4)GlcNAc
# Method in brief: as §1
# [13] = biological target: GlcNAc(b1-4)GlcNAc(b1-4)GlcNAc(b1-4)GlcNAc(b1-4)GlcNAc
# Method in brief: as §1
# [14] = biological target: GlcNAc(b1-4)GlcNAc(b1-4)GlcNAc(b1-4)GlcNAc(b1-4)GlcNAc(b1-4)GlcNAc
# Method in brief: as §1
# [15] = biological target: GlcNAc(b1-4)[GlcNAc(b1-6)]GalNAc
# Method in brief: as §1
# [16] = biological target: GlcNAc(b1-6)Gal(b1-4)GlcNAc
# Method in brief: as §1
# GlcNAc(b1-6)GalNAc = biological target: GlcNAc(b1-6)GalNAc
# Method in brief: as §1
# [17] = biological target: GlcNAc6S(b1-3)Gal(b1-4)GlcNAc
# Method in brief: as §1
# Kdn(a2-3)Gal(b1-3)GalNAc = biological target: Kdn(a2-3)Gal(b1-3)GalNAc
# Method in brief: as §1
# Kdn(a2-3)Gal(b1-3)GlcNAc = biological target: Kdn(a2-3)Gal(b1-3)GlcNAc
# Method in brief: as §1
# Kdn(a2-3)Gal(b1-4)Glc = biological target: Kdn(a2-3)Gal(b1-4)Glc
# Method in brief: as §1
# Kdn(a2-3)Gal(b1-4)GlcNAc = biological target: Kdn(a2-3)Gal(b1-4)GlcNAc
# Method in brief: as §1
# [18] = biological target: Kdn(a2-3)Gal(b1-4)[Fuc(a1-3)]GlcNAc
# Method in brief: as §1
# Kdn(a2-6)Gal(b1-4)GlcNAc = biological target: Kdn(a2-6)Gal(b1-4)GlcNAc
# Method in brief: as §1
# [19] = biological target: Man(a1-2)Man(a1-2)Man(a1-3)Man
# Method in brief: as §1
# [20] = biological target: Man(a1-2)Man(a1-2)Man(a1-6)[Man(a1-3)]Man
# Method in brief: as §1
# Man(a1-2)Man(a1-3)Man = biological target: Man(a1-2)Man(a1-3)Man
# Method in brief: as §1
binder,measurement,setting,value
"SHCBP1-GST (Homo sapiens), Q8NEM2 (protein) MADGSLTGGGLEAAAMAPERMGWAVEQELASLEKGLFQDEDSCSDCSYRDKPGSSLQSFMPEGKTFFPEIFQTNQLLFYERFRAYQDYILADCKASEVQEFTAEFLEKVLEPSGWRAVWHTNVFKVLVEITDVDFAALKAVVRLAEPYLCDSQVSTFTMECMKELLDLKEHRLPLQELWVVFDDSGVFDQTALAIEHVRFFYQNIWRSWDEEEEDEYDYFVRCVEPRLRLHYDILEDRVPSGLIVDYHNLLSQCEESYRKFLNLRSSLSNCNSDSEQENISMVEGLKLYSEMEQLKQKLKLIENPLLRYVFGYQKNSNIQAKGVRSSGQKITHVVSSTMMAGLLRSLLTDRLCQEPGEEEREIQFHSDPLSAINACFEGDTVIVCPGHYVVHGTFSIADSIELEGYGLPDDIVIEKRGKGDTFVDCTGADIKISGIKFVQHDAVEGILIVHRGKTTLENCVLQCETTGVTVRTSAEFLMKNSDLYGAKGAGIEIYPGSQCTLSDNGIHHCKEGILIKDFLDEHYDIPKISMVNNIIHNNEGYGVVLVKPTIFSDLQENAEDGTEENKALKIQTSGEPDVAERVDLEELIECATGKMELCARTDPSEQVEGNCEIVNELIAASTQKGQIKKKRLSELGITQADDNLMSQEMFVGIVGNQFKWNGKGSFGTFLF",glycan array binding signal (z-score),[1],-0.149
same,glycan array binding signal (z-score),[2],-0.818
same,glycan array binding signal (z-score),[3],-0.518
same,glycan array binding signal (z-score),[4],-0.256
same,glycan array binding signal (z-score),[5],-0.133
same,glycan array binding signal (z-score),[6],0.071
same,glycan array binding signal (z-score),[7],-0.274
same,glycan array binding signal (z-score),GlcNAc(b1-3)GalNAc,-0.236
same,glycan array binding signal (z-score),GlcNAc(b1-3)Man,-0.054
same,glycan array binding signal (z-score),[8],0.38
same,glycan array binding signal (z-score),[9],-0.533
same,glycan array binding signal (z-score),[10],-0.212
same,glycan array binding signal (z-score),[11],-0.317
same,glycan array binding signal (z-score),GlcNAc(b1-4)GlcNAc,-0.48
same,glycan array binding signal (z-score),[12],-0.309
same,glycan array binding signal (z-score),[13],0.42
same,glycan array binding signal (z-score),[14],0.962
same,glycan array binding signal (z-score),[15],0.29
same,glycan array binding signal (z-score),[16],-0.158
same,glycan array binding signal (z-score),GlcNAc(b1-6)GalNAc,-0.109
same,glycan array binding signal (z-score),[17],0.355
same,glycan array binding signal (z-score),Kdn(a2-3)Gal(b1-3)GalNAc,0.023
same,glycan array binding signal (z-score),Kdn(a2-3)Gal(b1-3)GlcNAc,-0.385
same,glycan array binding signal (z-score),Kdn(a2-3)Gal(b1-4)Glc,-0.831
same,glycan array binding signal (z-score),Kdn(a2-3)Gal(b1-4)GlcNAc,0.202
same,glycan array binding signal (z-score),[18],1.24
same,glycan array binding signal (z-score),Kdn(a2-6)Gal(b1-4)GlcNAc,-0.319
same,glycan array binding signal (z-score),[19],-1.13
same,glycan array binding signal (z-score),[20],-0.665
same,glycan array binding signal (z-score),Man(a1-2)Man(a1-3)Man,0.14

# For convenience, part of the list above:
binder,measurement,setting,value
"SHCBP1-GST (Homo sapiens), Q8NEM2 (protein) MADGSLTGGGLEAAAMAPERMGWAVEQELASLEKGLFQDEDSCSDCSYRDKPGSSLQSFMPEGKTFFPEIFQTNQLLFYERFRAYQDYILADCKASEVQEFTAEFLEKVLEPSGWRAVWHTNVFKVLVEITDVDFAALKAVVRLAEPYLCDSQVSTFTMECMKELLDLKEHRLPLQELWVVFDDSGVFDQTALAIEHVRFFYQNIWRSWDEEEEDEYDYFVRCVEPRLRLHYDILEDRVPSGLIVDYHNLLSQCEESYRKFLNLRSSLSNCNSDSEQENISMVEGLKLYSEMEQLKQKLKLIENPLLRYVFGYQKNSNIQAKGVRSSGQKITHVVSSTMMAGLLRSLLTDRLCQEPGEEEREIQFHSDPLSAINACFEGDTVIVCPGHYVVHGTFSIADSIELEGYGLPDDIVIEKRGKGDTFVDCTGADIKISGIKFVQHDAVEGILIVHRGKTTLENCVLQCETTGVTVRTSAEFLMKNSDLYGAKGAGIEIYPGSQCTLSDNGIHHCKEGILIKDFLDEHYDIPKISMVNNIIHNNEGYGVVLVKPTIFSDLQENAEDGTEENKALKIQTSGEPDVAERVDLEELIECATGKMELCARTDPSEQVEGNCEIVNELIAASTQKGQIKKKRLSELGITQADDNLMSQEMFVGIVGNQFKWNGKGSFGTFLF",glycan array binding signal (z-score),[20],-0.665
same,glycan array binding signal (z-score),Man(a1-2)Man(a1-3)Man,0.14
